Measurements as given in US12478574B2, “Oral care compositions” (Colgate-Palmolive Company, priority 2016, dated 2025).
At least one compound was matched to its structure with a doubt left.

Conditions: 1H NMR

CCCCCCCCCCCCCCCC[n+]1ccccc1 [CPC, cetyl pyridinium chloride]
distribution of components between top and bottom layer: localized to a single layer of the biphasic system
